Reference: PubChem BioAssay AID504774 (Drosophila RNAi Screening Center, 2011)
In all, the deposit lists about 23,000 reagents; below is an unselected part of those that have a named target and a result. 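Values are quantile-normalised luminescence on an arbitrary scale; higher means more cells surviving MMS.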 Reagents against one gene are numbered here. Names joined by + are all predicted targets of the reagent. Not all columns of the deposit are shown.

- Assay: 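Knock-downs that shift viability of MMS-exposed cells relative to untreated ones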 (primary screen)
- Cells: Drosophila Kc167 cells
- Reagent: long dsRNA against Drosophila genes, about 0.25 µg dsRNA per well
- Time to read-out: about 6 days: 3 days knock-down, then 3 days with or without MMS
- Conditions: methyl methanesulphonate 0.004% (w/v) for 3 days after knock-down
- Read-out: 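Viability in wells given MMS, read as ATP luminescence, normalised by quantiles plate by plate and averaged across replicates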
- Direction: mean viability with MMS and viability with MMS: higher = more surviving cells after MMS

The first 7 records as a preview:
target | dsRNA no. | mean viability with MMS | viability with MMS, replicate 1
ric8a | 1 | 3.55e6 | 3.86e6
Ude | 1 | 3.65e6 | 4.13e6
Ide | 1 | 3.60e6 | 4.05e6
E(spl)malpha-BFM | 1 | 3.35e6 | 3.77e6
RFeSP | 1 | 3.43e6 | 3.83e6
stas | 1 | 3.93e6 | 4.42e6
CG31848 | 1 | 3.59e6 | 4.17e6

The list itself, from the first entry:
target | dsRNA no. | mean viability with MMS | viability with MMS, replicate 1
ric8a | 1 | 3.55e6 | 3.86e6
Ude | 1 | 3.65e6 | 4.13e6
Ide | 1 | 3.60e6 | 4.05e6
E(spl)malpha-BFM | 1 | 3.35e6 | 3.77e6
RFeSP | 1 | 3.43e6 | 3.83e6
stas | 1 | 3.93e6 | 4.42e6
CG31848 | 1 | 3.59e6 | 4.17e6
Alp7 | 1 | 3.15e6 | 3.68e6
CG15764 | 1 | 3.55e6 | 4.06e6
Pde1c | 1 | 3.30e6 | 3.72e6
Pde1c | 2 | 3.30e6 | 3.71e6
Pde1c | 3 | 3.28e6 | 3.65e6
Pde1c | 4 | 3.12e6 | 3.68e6
Pde1c | 5 | 3.42e6 | 3.85e6
Pde1c | 6 | 3.38e6 | 3.80e6
CG12983 | 1 | 3.59e6 | 4.04e6
CG33255 (retired record) + hpRNA:CR32205 | 1 | 3.62e6 | 4.09e6
CG33255 (retired record) + hpRNA:CR32205 | 2 | 3.58e6 | 4.04e6
APC4 | 1 | 3.19e6 | 3.55e6
CG15657 | 1 | 3.56e6 | 4.08e6
CG11655 | 1 | 3.47e6 | 3.97e6
otp | 1 | 3.52e6 | 3.91e6
otp | 2 | 3.33e6 | 3.70e6
Nelf-E | 1 | 3.57e6 | 4.00e6
Invadolysin | 1 | 3.56e6 | 4.08e6
pim | 1 | 3.29e6 | 3.64e6
GstE2 | 1 | 3.60e6 | 4.10e6
CG8236 | 1 | 3.39e6 | 3.81e6
CG7878 | 1 | 3.53e6 | 4.08e6
Lrp4 | 1 | 3.59e6 | 3.99e6
CG4949 | 1 | 3.97e6 | 4.55e6
tok | 1 | 3.34e6 | 3.80e6
CG32582 (retired record) | 1 | 3.67e6 | 4.14e6
Obp99b | 1 | 3.33e6 | 3.73e6
CG7182 | 1 | 3.53e6 | 4.07e6
CG11367 | 1 | 3.73e6 | 4.22e6
mRpS9 | 1 | 3.79e6 | 4.01e6
mRpS9 | 2 | 3.76e6 | 4.07e6
Traf4 | 1 | 3.29e6 | 3.57e6
Traf4 | 2 | 3.54e6 | 4.03e6
CG7601 | 1 | 3.61e6 | 4.04e6
CG1598 | 1 | 3.42e6 | 3.89e6
CG42735 (retired record) | 1 | 3.48e6 | 3.81e6
CG32453 | 1 | 3.65e6 | 4.05e6
slmo + CG34179 | 1 | 3.55e6 | 4.06e6
p24-1 | 1 | 3.50e6 | 4.03e6
SIFaR | 1 | 3.49e6 | 3.96e6
SIFaR | 2 | 3.53e6 | 4.11e6
Gmppb | 1 | 3.38e6 | 3.79e6
Vha36-2 | 1 | 3.40e6 | 3.77e6
CG7142 | 1 | 3.54e6 | 3.88e6
DIP-kappa | 1 | 3.31e6 | 3.79e6
DIP-kappa | 2 | 3.52e6 | 3.95e6
fz3 | 1 | 3.64e6 | 4.18e6
e(r) | 1 | 3.64e6 | 3.89e6
Msr-110 | 1 | 3.44e6 | 3.75e6
CG31467 | 1 | 3.60e6 | 4.06e6
Sf3b1 | 1 | 2.90e6 | 3.41e6
Hmg-2 | 1 | 3.65e6 | 4.03e6
Gpat4 | 1 | 3.64e6 | 4.18e6
l(2)37Bb | 1 | 3.77e6 | 4.00e6
mlt | 1 | 3.67e6 | 4.13e6
Coop | 1 | 3.15e6 | 2.60e6
Tsp3A | 1 | 3.55e6 | 4.09e6
superdeath | 1 | 1.77e6 | 3.95e6
lab | 1 | 3.36e6 | 3.85e6
yin | 1 | 3.63e6 | 4.04e6
yin | 2 | 3.33e6 | 3.88e6
